The test addresses Myc-Sdd3 (C. albicans) (UniProt Q59R27). The test can be described thus: affinity purification with mass spectrometry.

Sequences of proteins named here, by UniProt entry; tags and fusion partners are left off.
UniProt Q5AGW7: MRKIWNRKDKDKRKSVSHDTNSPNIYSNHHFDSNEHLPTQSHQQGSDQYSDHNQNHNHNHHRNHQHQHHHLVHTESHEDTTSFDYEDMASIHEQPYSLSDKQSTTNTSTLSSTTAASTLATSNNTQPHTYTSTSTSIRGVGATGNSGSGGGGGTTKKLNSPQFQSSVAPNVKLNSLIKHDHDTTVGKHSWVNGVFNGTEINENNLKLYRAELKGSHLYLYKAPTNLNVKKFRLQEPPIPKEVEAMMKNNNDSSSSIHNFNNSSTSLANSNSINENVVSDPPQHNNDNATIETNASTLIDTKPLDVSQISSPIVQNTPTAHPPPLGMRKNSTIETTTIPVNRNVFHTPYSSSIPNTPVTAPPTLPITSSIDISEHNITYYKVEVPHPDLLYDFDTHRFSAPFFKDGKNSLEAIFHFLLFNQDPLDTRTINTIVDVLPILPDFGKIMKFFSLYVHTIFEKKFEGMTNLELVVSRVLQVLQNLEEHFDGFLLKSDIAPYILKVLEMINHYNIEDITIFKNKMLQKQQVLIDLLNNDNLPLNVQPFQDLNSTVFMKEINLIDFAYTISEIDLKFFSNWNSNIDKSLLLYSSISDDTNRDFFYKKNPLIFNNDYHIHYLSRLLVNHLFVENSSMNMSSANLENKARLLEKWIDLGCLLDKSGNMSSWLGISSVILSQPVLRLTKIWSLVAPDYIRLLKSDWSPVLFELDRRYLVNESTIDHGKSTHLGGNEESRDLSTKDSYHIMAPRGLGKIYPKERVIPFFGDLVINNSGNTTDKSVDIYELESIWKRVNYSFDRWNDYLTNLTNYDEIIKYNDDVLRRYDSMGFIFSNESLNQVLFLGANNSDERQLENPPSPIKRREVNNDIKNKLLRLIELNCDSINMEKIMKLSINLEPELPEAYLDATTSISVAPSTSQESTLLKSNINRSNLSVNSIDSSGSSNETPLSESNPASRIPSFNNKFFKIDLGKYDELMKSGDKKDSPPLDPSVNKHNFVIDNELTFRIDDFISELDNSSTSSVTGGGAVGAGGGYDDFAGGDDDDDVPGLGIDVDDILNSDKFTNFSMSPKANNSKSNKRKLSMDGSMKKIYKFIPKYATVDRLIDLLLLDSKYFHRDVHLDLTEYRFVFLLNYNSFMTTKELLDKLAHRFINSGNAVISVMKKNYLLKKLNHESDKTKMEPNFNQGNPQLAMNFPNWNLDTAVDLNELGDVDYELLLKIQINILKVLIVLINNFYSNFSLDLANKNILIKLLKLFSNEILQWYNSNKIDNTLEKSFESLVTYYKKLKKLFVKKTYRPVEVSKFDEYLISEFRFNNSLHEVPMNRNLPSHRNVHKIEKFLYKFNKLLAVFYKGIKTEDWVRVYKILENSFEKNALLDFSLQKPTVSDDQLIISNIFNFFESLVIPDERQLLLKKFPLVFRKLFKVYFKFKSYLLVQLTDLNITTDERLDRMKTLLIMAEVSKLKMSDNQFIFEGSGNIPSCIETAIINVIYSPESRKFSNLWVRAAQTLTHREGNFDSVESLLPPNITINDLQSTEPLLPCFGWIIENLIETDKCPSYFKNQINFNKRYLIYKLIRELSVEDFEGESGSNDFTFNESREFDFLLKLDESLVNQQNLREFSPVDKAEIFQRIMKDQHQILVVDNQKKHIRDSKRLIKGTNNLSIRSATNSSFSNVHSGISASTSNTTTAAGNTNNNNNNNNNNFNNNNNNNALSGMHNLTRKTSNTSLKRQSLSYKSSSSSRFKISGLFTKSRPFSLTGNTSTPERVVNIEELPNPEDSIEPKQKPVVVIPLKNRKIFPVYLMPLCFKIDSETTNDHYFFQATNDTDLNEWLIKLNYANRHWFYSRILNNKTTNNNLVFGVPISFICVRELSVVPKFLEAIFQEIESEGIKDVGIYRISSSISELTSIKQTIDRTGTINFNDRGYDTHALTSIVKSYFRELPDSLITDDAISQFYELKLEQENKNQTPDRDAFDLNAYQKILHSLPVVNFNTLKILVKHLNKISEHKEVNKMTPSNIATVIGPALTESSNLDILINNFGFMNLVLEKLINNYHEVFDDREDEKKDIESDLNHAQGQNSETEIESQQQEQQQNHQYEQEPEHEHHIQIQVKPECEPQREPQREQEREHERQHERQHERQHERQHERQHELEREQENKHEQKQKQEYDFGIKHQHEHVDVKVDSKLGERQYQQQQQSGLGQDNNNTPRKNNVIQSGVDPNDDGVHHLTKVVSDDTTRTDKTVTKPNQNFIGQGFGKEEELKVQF

These are yes or no findings as the source states them, for the method shown. Binding seen in cells or lysates may run through a third protein. A yes stands for co-enrichment or nearness to the bait. Other partners may have been found.

Bem2 (from UniProt Q5AGW7 1-2252): the binding result is listed as “binds”.

For the origin of these results see publication PMC11796410.
